Reference: publication PMC7150476

The chains behind the UniProt entries cited, without tags or fusion partners.
UniProt O15162: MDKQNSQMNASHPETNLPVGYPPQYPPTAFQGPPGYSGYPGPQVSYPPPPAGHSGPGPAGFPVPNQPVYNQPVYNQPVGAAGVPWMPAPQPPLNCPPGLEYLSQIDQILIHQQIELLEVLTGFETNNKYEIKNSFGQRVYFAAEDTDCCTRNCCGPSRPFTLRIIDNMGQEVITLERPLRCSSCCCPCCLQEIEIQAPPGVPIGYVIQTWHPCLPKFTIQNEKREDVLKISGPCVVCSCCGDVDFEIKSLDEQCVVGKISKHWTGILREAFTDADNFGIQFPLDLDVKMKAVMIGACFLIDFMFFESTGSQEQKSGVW
UniProt P40763: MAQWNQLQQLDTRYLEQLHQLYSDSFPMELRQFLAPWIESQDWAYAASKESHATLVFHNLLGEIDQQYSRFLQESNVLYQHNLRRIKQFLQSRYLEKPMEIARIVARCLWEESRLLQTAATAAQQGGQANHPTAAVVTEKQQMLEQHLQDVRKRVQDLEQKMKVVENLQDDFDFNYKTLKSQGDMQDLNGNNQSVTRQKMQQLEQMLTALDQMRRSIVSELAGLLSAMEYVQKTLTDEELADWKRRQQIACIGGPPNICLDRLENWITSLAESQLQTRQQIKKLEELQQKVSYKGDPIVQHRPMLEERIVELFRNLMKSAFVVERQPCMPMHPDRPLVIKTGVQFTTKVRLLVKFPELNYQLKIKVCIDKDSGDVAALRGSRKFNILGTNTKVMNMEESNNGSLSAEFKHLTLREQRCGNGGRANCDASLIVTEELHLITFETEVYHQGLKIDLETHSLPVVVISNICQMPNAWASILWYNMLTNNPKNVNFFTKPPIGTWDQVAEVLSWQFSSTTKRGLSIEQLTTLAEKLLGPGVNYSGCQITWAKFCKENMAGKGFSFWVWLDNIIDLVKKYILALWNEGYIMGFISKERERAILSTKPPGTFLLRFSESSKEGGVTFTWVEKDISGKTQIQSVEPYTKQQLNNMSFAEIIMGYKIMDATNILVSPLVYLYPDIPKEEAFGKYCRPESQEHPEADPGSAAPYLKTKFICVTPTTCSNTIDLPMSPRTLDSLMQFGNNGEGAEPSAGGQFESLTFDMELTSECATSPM
UniProt P06241: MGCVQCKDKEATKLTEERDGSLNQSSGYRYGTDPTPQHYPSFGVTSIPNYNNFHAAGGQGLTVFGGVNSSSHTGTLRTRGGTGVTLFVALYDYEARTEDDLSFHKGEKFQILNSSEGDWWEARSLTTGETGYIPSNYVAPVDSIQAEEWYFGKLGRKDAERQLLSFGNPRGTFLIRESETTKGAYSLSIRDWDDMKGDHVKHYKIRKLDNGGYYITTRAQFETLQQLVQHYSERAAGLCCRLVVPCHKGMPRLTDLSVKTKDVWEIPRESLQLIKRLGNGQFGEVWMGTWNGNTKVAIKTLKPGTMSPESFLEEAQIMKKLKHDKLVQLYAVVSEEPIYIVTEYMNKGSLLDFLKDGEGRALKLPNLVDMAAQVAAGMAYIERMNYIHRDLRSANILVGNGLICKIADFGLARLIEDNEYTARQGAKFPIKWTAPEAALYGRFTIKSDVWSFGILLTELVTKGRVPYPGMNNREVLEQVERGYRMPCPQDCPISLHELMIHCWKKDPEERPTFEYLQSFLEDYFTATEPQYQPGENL

target: Flag-tagged PLSCR1 (PLSCR1-2Flag), phospholipid scramblase 1 (human) (UniProt O15162); experiment: affinity purification with mass spectrometry; PLSCR1-2Flag complex isolated from enriched extracts of stable shPLSCR1-expressing MDA-MB231 cells with Flag affinity columns; bound proteins identified by mass spectrometry

binding	Substance
binds	STAT3 (signal transducer and activator of transcription 3), endogenous (from UniProt P40763 1-770)
binds	FYN, endogenous (from UniProt P06241 1-537) (enzyme)
binds	EGFR, endogenous (from UniProt P00533 25-1210) (receptor)

Results are given in words; binding and its absence hold for the method and conditions named. Binding seen in cells or lysates may run through a third protein. A yes stands for co-enrichment or nearness to the bait. Other partners may have been found.
